Some of these results come from one statement about several compounds together. One block for each compound: values may come before it.
How the values were obtained:
[1] = Human plasma stability assay; details: 37° C., within 24 hours
Solution stability assay = format: physicochemical; details: 1 mg/mL in 100 mM Britton Robinson buffer pH 7.96, 40° C.

SMILES: CCCCC[C@@H](C(=O)NCNC(=O)c1ccc(-c2ccc(C(=O)N[C@@H](CC(=O)O)C(=O)O)c(OCC(=O)O)c2)o1)[C@@H](CC)N(C=O)OC(=O)c1cccnc1 [Example 13, (S)-2-(2-(carboxymethoxy)-4-(5-((((R)-2-((R)-1-(N-(nicotinoyloxy) formamido)propyl)heptanamido)methyl)carbamoyl)furan-2-yl)benzamido) succinic acid]
conversion to a BMP1, TLL1 and/or TLL2 inhibitor in human plasma [1]: convert to a BMP1, TLL1 and/or TLL2 inhibitor within 24 hours
purity present at 200 hours (test compound remaining relative to time zero) (Solution stability assay): < 80%

SMILES: CCCCC[C@@H](C(=O)NCNC(=O)c1ccc(-c2ccc(C(=O)N[C@@H](CC(=O)OC)C(=O)OC)c(OCC(=O)OC)c2)o1)[C@@H](CC)N(O)C=O [Example 142, (S)-dimethyl 2-(4-(5-((((R)-2-((R)-1-(N-hydroxyformamido)propyl)heptanamido)methyl)carbamoyl)furan-2-yl)-2-(2-methoxy-2-oxoethoxy)benzamido)succinate]
purity present at 200 hours (test compound remaining relative to time zero) (Solution stability assay): < 80%

SMILES: CCCCC[C@@H](C(=O)NCNC(=O)c1ccc(-c2ccc(C(=O)N[C@@H](CC(=O)O)C(=O)O)c(OCC(=O)O)c2)o1)[C@@H](CC)N(C=O)OC(=O)c1ccccc1OC(C)=O [Example 12, (S)-2-(4-(5-((((R)-2-((R)-1-(N-((2-acetoxybenzoyl)oxy) formamido)propyl)heptanamido)methyl)carbamoyl)furan-2-yl)-2-(carboxymethoxy)benzamido) succinic acid]
conversion to a BMP1, TLL1 and/or TLL2 inhibitor in human plasma [1]: convert to a BMP1, TLL1 and/or TLL2 inhibitor within 24 hours
purity present at 200 hours (test compound remaining relative to time zero) (Solution stability assay): < 80%

SMILES: CCCCC[C@@H](C(=O)NCNC(=O)c1ccc(-c2ccc(C(=O)N[C@@H](CC(=O)O)C(=O)O)c(OCC(=O)O)c2)o1)[C@@H](CC)N(C=O)OC(=O)OC(C)(C)C [Example 14, (S)-2-(2-(carboxymethoxy)-4-(5-(((4R,5R)-5-ethyl-6-formyl-10,10-dimethyl-3,8-dioxo-4-pentyl-7,9-dioxa-2,6-diazaundecyl)carbamoyl)furan-2-yl)benzamido) succinic acid]
conversion to a BMP1, TLL1 and/or TLL2 inhibitor in human plasma [1]: convert to a BMP1, TLL1 and/or TLL2 inhibitor within 24 hours
purity present at 200 hours (test compound remaining relative to time zero) (Solution stability assay): < 80%

SMILES: CCCCC[C@@H](C(=O)NCNC(=O)c1ccc(-c2ccc(C(=O)N[C@@H](CC(=O)O)C(=O)O)c(OCC(=O)O)c2)o1)[C@@H](CC)N(C=O)OC(=O)c1ccccc1O [Example 6, (S)-2-(2-(carboxymethoxy)-4-(5-((((R)-2-((R)-1-(N-((2-hydroxybenzoyl)oxy)formamido)propyl)heptanamido)methyl)carbamoyl)furan-2-yl)benzamido) succinic acid]
conversion to a BMP1, TLL1 and/or TLL2 inhibitor in human plasma [1]: convert to a BMP1, TLL1 and/or TLL2 inhibitor within 24 hours
purity present at 200 hours (test compound remaining relative to time zero) (Solution stability assay): < 80%

SMILES: CCCCC[C@@H](C(=O)NCNC(=O)c1ccc(-c2ccccc2)o1)[C@@H](CC)N(C=O)OC(=O)Cc1ccccc1 [Example 137, 5-phenyl-N-(((R)-2-((R)-1-(N-(2-phenylacetoxy) formamido)propyl)heptanamido)methyl) furan-2-carboxamide]
conversion to a BMP1, TLL1 and/or TLL2 inhibitor in human plasma [1]: convert to a BMP1, TLL1 and/or TLL2 inhibitor within 24 hours
purity present at 200 hours (test compound remaining relative to time zero) (Solution stability assay): < 80%

SMILES: CCCCC[C@@H](C(=O)NCNC(=O)c1ccc(-c2cc(OCC)cc(P(=O)(O)O)c2)o1)[C@@H](CC)N(C=O)OC(=O)Cc1ccccc1 [Example 3, (3-ethoxy-5-(5-((((R)-2-((R)-1-(N-(2-phenylacetoxy) formamido)propyl)heptanamido)methyl)carbamoyl)furan-2-yl)phenyl)phosphonic acid]
conversion to a BMP1, TLL1 and/or TLL2 inhibitor in human plasma [1]: convert to a BMP1, TLL1 and/or TLL2 inhibitor within 24 hours
purity present at 200 hours (test compound remaining relative to time zero) (Solution stability assay): < 80%

SMILES: CCCCC[C@@H](C(=O)NCNC(=O)c1ccc(-c2ccc(C(=O)N[C@@H](CC(=O)O)C(=O)O)c(OCC)c2)o1)[C@@H](CC)N(C=O)OC(=O)C(C)(C)C [Example 5, (S)-2-(2-ethoxy-4-(5-((((R)-2-((R)-1-(N-(pivaloyloxy) formamido)propyl)heptanamido)methyl)carbamoyl)furan-2-yl)benzamido) succinic acid]
conversion to a BMP1, TLL1 and/or TLL2 inhibitor in human plasma [1]: convert to a BMP1, TLL1 and/or TLL2 inhibitor within 24 hours
purity present at 200 hours (test compound remaining relative to time zero) (Solution stability assay): < 80%

SMILES: CCCCC[C@@H](C(=O)NCNC(=O)c1ccc(-c2ccccc2)o1)[C@@H](CC)N(C=O)OC(=O)OC(C)(C)C [Example 139, N-((4R,5R)-5-ethyl-6-formyl-10,10-dimethyl-3,8-dioxo-4-pentyl-7,9-dioxa-2,6-diazaundecyl)-5-phenylfuran-2-carboxamide]
conversion to a BMP1, TLL1 and/or TLL2 inhibitor in human plasma [1]: convert to a BMP1, TLL1 and/or TLL2 inhibitor within 24 hours
purity present at 200 hours (test compound remaining relative to time zero) (Solution stability assay): < 80%

SMILES: CCCCC[C@@H](C(=O)NCNC(=O)c1ccc(-c2ccc(C(=O)N[C@@H](CC(=O)O)C(=O)O)c(OCC)c2)o1)[C@@H](CC)N(C=O)OC(=O)c1ccc(OC)cc1OC(F)(F)F [Example 124, (S)-2-(2-ethoxy-4-(5-((((R)-2-((R)-1-(N-((4-methoxy-2-(trifluoromethoxy)benzoyl)oxy) formamido)propyl)heptanamido)methyl)carbamoyl)furan-2-yl)benzamido) succinic acid]
conversion to a BMP1, TLL1 and/or TLL2 inhibitor in human plasma [1]: convert to a BMP1, TLL1 and/or TLL2 inhibitor within 24 hours

SMILES: CCCCC[C@@H](C(=O)NCNC(=O)c1ccc(-c2cc(OCC)cc(P(=O)(O)O)c2)o1)[C@@H](CC)N(C=O)OC(=O)c1ccc(OC)cc1 [Example 47, (3-ethoxy-5-(5-((((R)-2-((R)-1-(N-((4-methoxybenzoyl)oxy) formamido)propyl)heptanamido)methyl)carbamoyl)furan-2-yl)phenyl) phosphonic acid]
conversion to a BMP1, TLL1 and/or TLL2 inhibitor in human plasma [1]: convert to a BMP1, TLL1 and/or TLL2 inhibitor within 24 hours

SMILES: CCCCC[C@@H](C(=O)NCNC(=O)c1ccc(-c2ccc(C(=O)N[C@@H](CC(=O)O)C(=O)O)c(OCC(=O)O)c2)o1)[C@@H](CC)N(C=O)OC(=O)c1ccc(CN2CCOCC2)cc1 [Example 35, (S)-2-(2-(carboxymethoxy)-4-(5-((((R)-2-((R)-1-(N-((4-(morpholinomethyl)benzoyl)oxy) formamido)propyl)heptanamido)methyl)carbamoyl)furan-2-yl)benzamido) succinic acid]
conversion to a BMP1, TLL1 and/or TLL2 inhibitor in human plasma [1]: convert to a BMP1, TLL1 and/or TLL2 inhibitor within 24 hours

The next lines start with results.

purity present at 200 hours (test compound remaining relative to time zero) (Solution stability assay): < 80%
SMILES: CCCCC[C@@H](C(=O)NCNC(=O)c1ccc(-c2ccc(C(=O)N[C@@H](CC(=O)O)C(=O)O)c(OCC)c2)o1)[C@@H](CC)N(C=O)OC(=O)c1ccccc1 [Example 1, (S)-2-(4-(5-((((R)-2-((R)-1-(N-(benzoyloxy)formamido)propyl)heptanamido)methyl)carbamoyl)furan-2-yl)-2-ethoxybenzamido)succinic Acid]
conversion to a BMP1, TLL1 and/or TLL2 inhibitor in human plasma [1]: convert to a BMP1, TLL1 and/or TLL2 inhibitor within 24 hours

purity present at 200 hours (test compound remaining relative to time zero) (Solution stability assay): < 80%
SMILES: CCCCC[C@@H](C(=O)NCNC(=O)c1ccc(-c2ccccc2)o1)[C@@H](CC)N(C=O)OC(=O)c1ccccc1 [Example 140, N-(((R)-2-((R)-1-(N-(benzoyloxy) formamido)propyl)heptanamido)methyl)-5-phenylfuran-2-carboxamide]
conversion to a BMP1, TLL1 and/or TLL2 inhibitor in human plasma [1]: convert to a BMP1, TLL1 and/or TLL2 inhibitor within 24 hours

purity present at 200 hours (test compound remaining relative to time zero) (Solution stability assay): < 80%
SMILES: CCCCC[C@@H](C(=O)NCNC(=O)c1ccc(-c2cc(OCC)cc(P(=O)(O)O)c2)o1)[C@@H](CC)N(C=O)OCOC(=O)C(C)(C)C [Example 9, (3-ethoxy-5-(5-(((4R,5R)-5-ethyl-6-formyl-11,11-dimethyl-3,10-dioxo-4-pentyl-7,9-dioxa-2,6-diazadodecyl)carbamoyl)furan-2-yl)phenyl)phosphonic acid]
conversion to a BMP1, TLL1 and/or TLL2 inhibitor in human plasma [1]: convert to a BMP1, TLL1 and/or TLL2 inhibitor within 24 hours

purity present at 200 hours (test compound remaining relative to time zero) (Solution stability assay): < 80%
SMILES: CCCCC[C@@H](C(=O)NCNC(=O)c1ccc(-c2ccc(C(=O)N[C@@H](CC(=O)O)C(=O)O)c(OCC(=O)O)c2)o1)[C@@H](CC)N(C=O)OC(=O)c1ccccc1 [Example 7, (S)-2-(4-(5-((((R)-2-((R)-1-(N-(benzo-yloxy)formamido)propyl)heptanamido)methyl)carbamoyl)furan-2-yl)-2-(carboxymethoxy)benzamido)succinic acid]
conversion to a BMP1, TLL1 and/or TLL2 inhibitor in human plasma [1]: convert to a BMP1, TLL1 and/or TLL2 inhibitor within 24 hours

purity present at 200 hours (test compound remaining relative to time zero) (Solution stability assay): < 80%
SMILES: CCCCC[C@@H](C(=O)NCNC(=O)c1ccc(-c2cc(OCC)cc(P(=O)(O)O)c2)o1)[C@@H](CC)N(C=O)OCc1oc(=O)oc1C [Example 141, (3-ethoxy-5-(5-((((R)-2-((R)-1-(N-((5-methyl-2-oxo-1,3-dioxol-4-yl)methoxy)formamido)propyl)heptanamido)methyl)carbamoyl)furan-2-yl)phenyl)phosphonic Acid]
conversion to a BMP1, TLL1 and/or TLL2 inhibitor in human plasma [1]: convert to a BMP1, TLL1 and/or TLL2 inhibitor within 24 hours

purity present at 200 hours (test compound remaining relative to time zero) (Solution stability assay): < 80%
SMILES: CCCCC[C@@H](C(=O)NCNC(=O)c1ccc(-c2ccccc2)o1)[C@@H](CC)N(C=O)OC(=O)OC [Example 138, N-((6R,7R)-6-ethyl-5-formyl-3,8-dioxo-7-pentyl-2,4-dioxa-5,9-diazadecan-10-yl)-5-phenylfuran-2-carboxamide]
conversion to a BMP1, TLL1 and/or TLL2 inhibitor in human plasma [1]: convert to a BMP1, TLL1 and/or TLL2 inhibitor within 24 hours

purity present at 200 hours (test compound remaining relative to time zero) (Solution stability assay): < 80%
SMILES: CCCCC[C@@H](C(=O)NCNC(=O)c1ccc(-c2cc(OCC)cc(P(=O)(O)O)c2)o1)[C@@H](CC)N(C=O)OC(=O)c1ccccc1 [Example 2, (3-(5-((((R)-2-((R)-1-(N-(benzoyloxy) formamido)propyl)heptanamido)methyl)carbamoyl)furan-2-yl)-5-ethoxyphenyl) phosphonic acid]
conversion to a BMP1, TLL1 and/or TLL2 inhibitor in human plasma [1]: convert to a BMP1, TLL1 and/or TLL2 inhibitor within 24 hours
